The text below walks through data of paper PMC10351472.

Amino acid sequences for entries named in this document (tags omitted).
UniProt O95817: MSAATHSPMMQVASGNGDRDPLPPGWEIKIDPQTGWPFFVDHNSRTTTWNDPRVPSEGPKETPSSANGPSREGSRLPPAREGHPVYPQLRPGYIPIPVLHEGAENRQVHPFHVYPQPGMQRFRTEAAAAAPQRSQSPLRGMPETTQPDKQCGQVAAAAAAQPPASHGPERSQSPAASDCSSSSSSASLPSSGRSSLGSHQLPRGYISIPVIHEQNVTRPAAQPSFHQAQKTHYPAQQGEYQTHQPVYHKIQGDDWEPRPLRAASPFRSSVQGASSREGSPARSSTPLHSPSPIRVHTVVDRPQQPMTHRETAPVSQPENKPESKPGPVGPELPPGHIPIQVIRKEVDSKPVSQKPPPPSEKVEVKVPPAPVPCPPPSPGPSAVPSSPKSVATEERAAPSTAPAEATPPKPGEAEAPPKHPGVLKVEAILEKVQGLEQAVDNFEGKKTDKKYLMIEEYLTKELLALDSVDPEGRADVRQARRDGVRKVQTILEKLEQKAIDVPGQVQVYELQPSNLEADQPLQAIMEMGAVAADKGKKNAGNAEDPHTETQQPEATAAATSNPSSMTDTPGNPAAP

These are yes or no findings as the source states them, for the method shown. Binding seen in cells or lysates may run through a third protein. Binding calls can cover weak binding; strength is not graded here. For part of these data: Tags and fused reporters may be left off the sequences shown.

Assay [1] deals with BAG3 (BAG cochaperone 3) (human (endogenous in HEK293T)) (UniProt O95817). Nature of the assay: co-IP; RIPA-soluble extracts of HEK293T-HSPB8-WT-V5 cells transfected with untagged pCi-HSPB8 constructs, 48 h; anti-BAG3 (Abcam ab47124) antibody on Protein A magnetic beads; western blot. Background: A western blot detects proteins with antibodies after separation by electrophoresis.

The target of assay [2] is T1, V5-tagged HSPB8_WT (heat shock protein family B (small) member 8, wild-type) (human) (UniProt Q9UJY1).
T1 sequence: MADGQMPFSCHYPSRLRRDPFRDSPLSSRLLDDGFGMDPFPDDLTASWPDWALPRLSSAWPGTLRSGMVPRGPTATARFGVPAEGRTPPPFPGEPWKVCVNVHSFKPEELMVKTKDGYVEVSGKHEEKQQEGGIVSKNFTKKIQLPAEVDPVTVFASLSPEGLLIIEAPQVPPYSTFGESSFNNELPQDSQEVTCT
Nature of the assay: co-IP; RIPA-soluble extracts of HEK293T-HSPB8-WT-V5 cells transfected with untagged pCi-HSPB8 constructs, 48 h; anti-V5 (D3H8Q) antibody on Protein A magnetic beads; western blot.

“untagged HSPB8_fs mutant p.P173Sfs*43 (from UniProt Q9UJY1)”: the binding result in assay [1] and in assay [2] was “binds” each time.

“untagged HSPB8_fs mutant p.Q170Gfs*45 (from UniProt Q9UJY1)”: the binding result in assay [1] and in assay [2] was “binds” in each case.

Turning to “untagged HSPB8_fs mutant p.T194Sfs*23 (from UniProt Q9UJY1)”, the binding entry in assay [1] and in assay [2] was “binds” each time.
